In PMC5548887:
Results are given in words; binding and its absence hold for the method and conditions named. Some results given as binding are weak or reduced against the parent protein; the word gives no strength.

By UniProt entry, the sequences of proteins in these tests, tags left out.
UniProt Q9Y4X5: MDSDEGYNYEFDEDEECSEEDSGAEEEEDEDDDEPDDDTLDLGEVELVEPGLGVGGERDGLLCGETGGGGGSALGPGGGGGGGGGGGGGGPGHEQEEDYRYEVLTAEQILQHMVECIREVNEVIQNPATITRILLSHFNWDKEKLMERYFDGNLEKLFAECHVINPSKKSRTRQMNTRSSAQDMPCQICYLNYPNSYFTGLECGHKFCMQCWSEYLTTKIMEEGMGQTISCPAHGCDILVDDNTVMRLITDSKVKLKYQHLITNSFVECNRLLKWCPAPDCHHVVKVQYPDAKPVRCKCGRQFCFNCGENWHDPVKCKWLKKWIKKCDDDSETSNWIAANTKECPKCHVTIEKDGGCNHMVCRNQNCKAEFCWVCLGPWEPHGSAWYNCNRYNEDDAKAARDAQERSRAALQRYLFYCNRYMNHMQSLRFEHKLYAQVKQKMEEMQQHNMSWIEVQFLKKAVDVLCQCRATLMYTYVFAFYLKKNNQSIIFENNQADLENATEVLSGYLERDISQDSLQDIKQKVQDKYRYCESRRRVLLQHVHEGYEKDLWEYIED
UniProt O14933: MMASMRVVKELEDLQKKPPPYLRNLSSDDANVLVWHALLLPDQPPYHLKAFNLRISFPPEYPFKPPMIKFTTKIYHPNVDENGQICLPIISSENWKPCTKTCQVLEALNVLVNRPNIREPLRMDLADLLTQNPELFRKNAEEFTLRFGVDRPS
UniProt Q16763: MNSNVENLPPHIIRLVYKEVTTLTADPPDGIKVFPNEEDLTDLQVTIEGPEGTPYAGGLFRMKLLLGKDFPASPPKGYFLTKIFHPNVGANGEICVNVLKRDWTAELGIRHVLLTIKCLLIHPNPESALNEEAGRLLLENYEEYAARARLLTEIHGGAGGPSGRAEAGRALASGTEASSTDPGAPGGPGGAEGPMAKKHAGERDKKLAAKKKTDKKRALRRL

Molecular target: HHARI full-length (residues 1-557) (UniProt Q9Y4X5)
Assay: SEC; full-length HHARI and E2 (or a 2-fold molar excess of UbcH7-Ub) incubated overnight at 4 °C, Superose 12 10/300 GL in 20 mM Tris HCl pH 8.0, 50 mM NaCl, 2 mM βME; fractions on SDS-PAGE; both purified

| binding | Substance |
| --- | --- |
| binds | UBE2L6 (from UniProt O14933 1-153) (enzyme) |
| binds | UBE2S (from UniProt Q16763 1-222) (enzyme) |
